From article PMC10267580
Results are given in words; binding and its absence hold for the method and conditions named.

T1: Rab6B^T27N, inactive mutant (mouse) (UniProt P61294)
T1 sequence: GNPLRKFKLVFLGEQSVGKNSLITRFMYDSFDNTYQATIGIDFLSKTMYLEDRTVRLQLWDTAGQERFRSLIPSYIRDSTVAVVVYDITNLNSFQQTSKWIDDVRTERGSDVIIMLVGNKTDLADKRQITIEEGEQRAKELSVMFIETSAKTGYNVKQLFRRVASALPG


Assays:
[1] = molecular target: T1, Rab6B^T27N, inactive mutant (mouse); assay: SEC; analytical gel filtration, Superdex 200 Increase 10/300 GL, 50 mM Tris pH 7.5, 100 mM NaCl, 2 mM MgCl2, 1 mM DTT; both purified
[2] = molecular target: Rab6B^Q72L, GTPase domain (residues 8-176), constitutively active mutant (mouse) (UniProt P61294); assay: condition: typically 400 μM in the syringe into 40 μM in the cell; ITC; MicroCal PEAQ-ITC, 25 °C, 50 mM Tris pH 7.5, 100 mM NaCl, 2 mM MgCl2; typically one protein (400 μM) in the syringe into its binding protein (40 μM) in the cell; both purified

| binding [1] | binding [2] | Binder |
| --- | --- | --- |
| no binding |  | ELKS1 C-terminal coiled-coil region (residues 761-927) (domain or fragment, UniProt Q811U3 761-927) QVKDQNKKVANLKHKEQVEKKKSAQMLEEARRREDSLSDSSQQLQVEELLMAMEKVKQELESMKAKLSSTQQSLAEKETHLTNLRAERRKHLEEVLEMKQEALLAAISEKDANIALLELSSSKKKTQEEVAALKREKDRLVQQLKQQTQNRMKLMADNYEDDHFRSS |
|  | no binding | ELKS1_RBD D871R (domain or fragment, UniProt Q811U3 849-922) RKHLEEVLEMKQEALLAAISEKRANIALLELSSSKKKTQEEVAALKREKDRLVQQLKQQTQNRMKLMADNYEDD |
|  | no binding | ELKS1_RBD K905E (domain or fragment, UniProt Q811U3 849-922) RKHLEEVLEMKQEALLAAISEKDANIALLELSSSKKKTQEEVAALKREKDRLVQQLEQQTQNRMKLMADNYEDD |
